# The list shows a part of the results.
# The chains behind the UniProt entries cited, without tags or fusion partners. Where a name states a change or a piece, a line headed by the entry shows the natural chain unless it says otherwise.
# UniProt Q8WWC4: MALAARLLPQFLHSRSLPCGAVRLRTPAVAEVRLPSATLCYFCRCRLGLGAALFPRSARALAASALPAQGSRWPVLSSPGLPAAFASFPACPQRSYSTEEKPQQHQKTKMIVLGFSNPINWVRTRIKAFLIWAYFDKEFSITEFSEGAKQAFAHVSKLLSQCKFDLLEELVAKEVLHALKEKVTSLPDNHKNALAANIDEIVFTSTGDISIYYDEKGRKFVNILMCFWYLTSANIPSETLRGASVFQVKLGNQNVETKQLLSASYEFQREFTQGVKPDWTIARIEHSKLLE
# UniProt O60732: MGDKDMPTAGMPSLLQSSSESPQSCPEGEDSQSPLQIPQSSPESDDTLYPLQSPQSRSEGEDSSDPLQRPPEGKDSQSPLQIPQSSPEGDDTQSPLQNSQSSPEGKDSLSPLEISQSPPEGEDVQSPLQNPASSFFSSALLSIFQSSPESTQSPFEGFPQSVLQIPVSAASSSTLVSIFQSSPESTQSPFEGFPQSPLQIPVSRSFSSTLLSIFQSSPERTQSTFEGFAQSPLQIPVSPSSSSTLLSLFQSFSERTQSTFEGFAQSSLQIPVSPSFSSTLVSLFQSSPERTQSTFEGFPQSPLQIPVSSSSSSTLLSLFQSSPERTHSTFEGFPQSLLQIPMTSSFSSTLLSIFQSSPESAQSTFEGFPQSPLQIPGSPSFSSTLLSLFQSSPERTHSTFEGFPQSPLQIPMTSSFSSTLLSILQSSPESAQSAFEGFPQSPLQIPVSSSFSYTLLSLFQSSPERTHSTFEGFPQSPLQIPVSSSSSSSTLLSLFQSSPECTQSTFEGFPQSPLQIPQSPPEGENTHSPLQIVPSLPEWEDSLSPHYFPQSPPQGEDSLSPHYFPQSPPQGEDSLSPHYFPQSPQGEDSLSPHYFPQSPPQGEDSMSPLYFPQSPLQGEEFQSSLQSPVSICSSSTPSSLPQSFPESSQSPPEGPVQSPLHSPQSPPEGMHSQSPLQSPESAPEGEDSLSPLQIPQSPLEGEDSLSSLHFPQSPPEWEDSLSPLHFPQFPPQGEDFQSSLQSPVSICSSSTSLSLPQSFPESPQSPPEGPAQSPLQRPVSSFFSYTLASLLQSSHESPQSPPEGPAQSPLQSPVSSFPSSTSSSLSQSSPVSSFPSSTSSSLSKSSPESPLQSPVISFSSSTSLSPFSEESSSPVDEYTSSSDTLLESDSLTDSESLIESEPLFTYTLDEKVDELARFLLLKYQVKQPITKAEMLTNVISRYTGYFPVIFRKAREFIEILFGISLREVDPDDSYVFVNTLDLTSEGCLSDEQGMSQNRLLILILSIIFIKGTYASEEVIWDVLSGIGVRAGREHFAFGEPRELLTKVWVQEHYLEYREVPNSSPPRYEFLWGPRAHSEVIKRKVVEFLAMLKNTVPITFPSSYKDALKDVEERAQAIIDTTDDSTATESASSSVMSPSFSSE
# UniProt P56192: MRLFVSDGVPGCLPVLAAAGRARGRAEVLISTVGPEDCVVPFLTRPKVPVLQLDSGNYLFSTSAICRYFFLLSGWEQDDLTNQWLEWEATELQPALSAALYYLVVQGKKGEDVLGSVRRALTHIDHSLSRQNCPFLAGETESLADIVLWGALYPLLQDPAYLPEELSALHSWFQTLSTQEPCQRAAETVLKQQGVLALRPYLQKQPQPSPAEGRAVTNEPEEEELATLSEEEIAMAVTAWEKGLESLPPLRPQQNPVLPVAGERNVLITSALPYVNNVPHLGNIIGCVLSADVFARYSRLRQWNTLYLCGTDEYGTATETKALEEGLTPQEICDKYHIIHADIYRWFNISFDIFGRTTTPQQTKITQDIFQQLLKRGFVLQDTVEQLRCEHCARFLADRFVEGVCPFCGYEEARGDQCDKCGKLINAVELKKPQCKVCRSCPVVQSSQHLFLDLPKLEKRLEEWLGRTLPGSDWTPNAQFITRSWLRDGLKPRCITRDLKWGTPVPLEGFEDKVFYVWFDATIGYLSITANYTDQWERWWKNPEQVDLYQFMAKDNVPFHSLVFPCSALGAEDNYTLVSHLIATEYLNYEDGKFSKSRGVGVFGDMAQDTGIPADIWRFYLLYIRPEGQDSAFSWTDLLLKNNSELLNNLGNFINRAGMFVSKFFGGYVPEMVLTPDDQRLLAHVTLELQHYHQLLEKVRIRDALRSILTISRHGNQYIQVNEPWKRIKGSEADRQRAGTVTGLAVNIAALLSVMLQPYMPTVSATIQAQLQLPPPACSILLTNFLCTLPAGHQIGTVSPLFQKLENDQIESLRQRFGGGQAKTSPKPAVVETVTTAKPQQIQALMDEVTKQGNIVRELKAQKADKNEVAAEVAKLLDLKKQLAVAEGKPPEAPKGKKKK
# UniProt Q3KQU3: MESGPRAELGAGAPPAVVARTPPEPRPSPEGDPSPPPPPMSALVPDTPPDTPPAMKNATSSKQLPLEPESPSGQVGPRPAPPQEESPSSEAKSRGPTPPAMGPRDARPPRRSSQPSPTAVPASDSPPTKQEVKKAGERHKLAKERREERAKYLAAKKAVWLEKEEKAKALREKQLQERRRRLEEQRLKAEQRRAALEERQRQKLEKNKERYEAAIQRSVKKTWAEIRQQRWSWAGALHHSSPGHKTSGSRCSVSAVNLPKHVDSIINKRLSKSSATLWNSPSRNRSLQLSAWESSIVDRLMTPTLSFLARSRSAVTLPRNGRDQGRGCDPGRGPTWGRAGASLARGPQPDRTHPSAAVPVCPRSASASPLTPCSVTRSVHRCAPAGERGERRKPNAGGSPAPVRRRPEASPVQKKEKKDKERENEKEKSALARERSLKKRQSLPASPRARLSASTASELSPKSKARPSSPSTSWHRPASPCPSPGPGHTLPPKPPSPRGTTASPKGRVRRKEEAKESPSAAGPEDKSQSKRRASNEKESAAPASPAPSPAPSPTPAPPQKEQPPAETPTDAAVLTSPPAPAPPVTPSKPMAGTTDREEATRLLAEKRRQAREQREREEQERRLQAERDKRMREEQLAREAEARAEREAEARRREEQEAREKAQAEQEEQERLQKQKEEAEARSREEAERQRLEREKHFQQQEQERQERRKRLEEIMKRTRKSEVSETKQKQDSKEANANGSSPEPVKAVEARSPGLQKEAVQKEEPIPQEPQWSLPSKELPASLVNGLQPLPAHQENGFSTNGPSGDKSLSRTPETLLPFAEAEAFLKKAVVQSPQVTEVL
# UniProt P43355: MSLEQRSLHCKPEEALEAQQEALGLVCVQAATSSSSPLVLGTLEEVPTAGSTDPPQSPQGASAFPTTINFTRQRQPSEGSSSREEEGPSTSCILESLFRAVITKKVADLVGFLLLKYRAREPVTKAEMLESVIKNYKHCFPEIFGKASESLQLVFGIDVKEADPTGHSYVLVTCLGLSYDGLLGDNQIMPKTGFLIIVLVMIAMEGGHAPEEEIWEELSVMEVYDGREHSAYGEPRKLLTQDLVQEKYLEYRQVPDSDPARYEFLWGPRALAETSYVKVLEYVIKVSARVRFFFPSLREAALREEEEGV
# UniProt Q9NZL9, whole entry, looked up: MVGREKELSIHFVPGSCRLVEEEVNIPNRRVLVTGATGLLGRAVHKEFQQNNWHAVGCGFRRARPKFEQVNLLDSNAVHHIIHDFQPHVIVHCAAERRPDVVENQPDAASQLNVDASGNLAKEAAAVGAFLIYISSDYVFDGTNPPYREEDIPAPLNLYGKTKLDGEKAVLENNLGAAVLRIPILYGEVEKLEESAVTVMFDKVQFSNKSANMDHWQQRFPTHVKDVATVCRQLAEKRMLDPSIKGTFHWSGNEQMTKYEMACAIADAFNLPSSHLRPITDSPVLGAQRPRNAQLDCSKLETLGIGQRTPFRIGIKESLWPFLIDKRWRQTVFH
# UniProt P43362: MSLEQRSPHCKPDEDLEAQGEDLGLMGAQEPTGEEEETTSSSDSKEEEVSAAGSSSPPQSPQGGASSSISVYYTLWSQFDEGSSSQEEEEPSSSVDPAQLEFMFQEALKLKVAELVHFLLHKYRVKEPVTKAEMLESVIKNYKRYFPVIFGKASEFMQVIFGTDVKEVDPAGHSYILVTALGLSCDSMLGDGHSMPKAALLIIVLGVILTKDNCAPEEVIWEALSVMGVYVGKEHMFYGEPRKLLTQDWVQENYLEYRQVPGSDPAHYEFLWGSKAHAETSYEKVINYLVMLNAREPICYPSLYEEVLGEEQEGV
# UniProt Q9Y6R4: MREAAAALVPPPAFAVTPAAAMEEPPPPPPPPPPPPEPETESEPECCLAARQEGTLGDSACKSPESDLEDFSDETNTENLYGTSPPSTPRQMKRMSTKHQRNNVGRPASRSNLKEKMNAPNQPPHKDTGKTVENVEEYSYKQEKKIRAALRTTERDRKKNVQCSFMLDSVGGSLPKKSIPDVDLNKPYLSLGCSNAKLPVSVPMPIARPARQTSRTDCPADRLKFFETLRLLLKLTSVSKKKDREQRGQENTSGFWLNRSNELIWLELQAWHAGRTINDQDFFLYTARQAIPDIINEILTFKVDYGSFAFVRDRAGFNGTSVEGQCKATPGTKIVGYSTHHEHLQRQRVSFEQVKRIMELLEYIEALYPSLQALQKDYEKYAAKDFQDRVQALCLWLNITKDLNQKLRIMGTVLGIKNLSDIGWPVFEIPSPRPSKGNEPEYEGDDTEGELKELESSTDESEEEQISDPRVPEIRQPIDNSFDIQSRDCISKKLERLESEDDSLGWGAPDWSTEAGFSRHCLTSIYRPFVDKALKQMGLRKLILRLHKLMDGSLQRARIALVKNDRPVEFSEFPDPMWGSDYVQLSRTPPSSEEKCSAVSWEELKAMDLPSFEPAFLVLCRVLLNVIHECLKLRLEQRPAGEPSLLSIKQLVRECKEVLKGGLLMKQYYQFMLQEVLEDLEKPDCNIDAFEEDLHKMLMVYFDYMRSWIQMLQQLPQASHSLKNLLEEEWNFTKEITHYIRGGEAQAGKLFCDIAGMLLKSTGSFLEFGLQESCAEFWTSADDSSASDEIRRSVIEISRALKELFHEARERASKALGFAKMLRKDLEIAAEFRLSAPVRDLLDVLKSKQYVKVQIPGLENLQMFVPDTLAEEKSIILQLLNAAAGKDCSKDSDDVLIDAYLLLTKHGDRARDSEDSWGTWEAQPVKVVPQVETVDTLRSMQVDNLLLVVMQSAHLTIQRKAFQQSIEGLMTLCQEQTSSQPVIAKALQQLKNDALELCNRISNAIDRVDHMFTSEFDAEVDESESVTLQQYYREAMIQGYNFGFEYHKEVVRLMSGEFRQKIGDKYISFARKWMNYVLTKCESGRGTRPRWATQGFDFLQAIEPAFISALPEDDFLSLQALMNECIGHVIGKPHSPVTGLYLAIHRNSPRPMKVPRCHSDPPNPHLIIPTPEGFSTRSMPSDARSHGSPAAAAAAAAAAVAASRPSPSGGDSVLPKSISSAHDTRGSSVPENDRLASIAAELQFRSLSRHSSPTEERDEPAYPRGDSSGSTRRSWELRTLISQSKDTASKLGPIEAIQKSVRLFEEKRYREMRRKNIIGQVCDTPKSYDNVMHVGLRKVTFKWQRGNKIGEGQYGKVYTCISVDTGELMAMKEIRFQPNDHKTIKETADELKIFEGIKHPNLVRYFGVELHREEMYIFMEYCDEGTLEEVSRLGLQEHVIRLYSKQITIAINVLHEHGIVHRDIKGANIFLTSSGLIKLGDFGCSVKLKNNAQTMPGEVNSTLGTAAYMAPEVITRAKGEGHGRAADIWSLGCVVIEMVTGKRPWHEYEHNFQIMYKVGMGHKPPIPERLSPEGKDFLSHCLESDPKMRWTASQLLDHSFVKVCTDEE
# UniProt O15479: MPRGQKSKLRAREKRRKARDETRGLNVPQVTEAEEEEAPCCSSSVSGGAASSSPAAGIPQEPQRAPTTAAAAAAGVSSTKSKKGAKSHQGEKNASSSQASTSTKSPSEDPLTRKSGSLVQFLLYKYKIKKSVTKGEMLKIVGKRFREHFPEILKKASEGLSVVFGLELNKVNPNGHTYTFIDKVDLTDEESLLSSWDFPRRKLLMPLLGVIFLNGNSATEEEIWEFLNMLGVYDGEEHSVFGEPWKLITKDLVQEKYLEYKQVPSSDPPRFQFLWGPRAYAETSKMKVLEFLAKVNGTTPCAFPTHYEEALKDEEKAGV
# Legend:
# Test in all cases: log2 fold change, soluble protein after heating vs DMSO (PISA); higher = thermal stabilisation; K562 lysate, 10 uM; active = over 0.2 and 3.5 SD of the protein, either way, in both replicates (recomputed)
# lapatinib = compound: CS(=O)(=O)CCNCc1ccc(-c2ccc3ncnc(Nc4ccc(OCc5cccc(F)c5)c(Cl)c4)c3c2)o1 [lapatinib]
# In short: (§1)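 Thermal stability, expressed as log-two fold change relative to solvent controls, is given from duplicates. Crude K562 extract in PBS pH 7.4 with 1 mM MgCl2, at 1 mg/mL protein, was treated with 10 μM compound for 30 min and heated in aliquots for 3 min across 48°C-58°C. After pooling, adjustment to 0.5% NP-40 at 4°C and centrifugation at 21,000xg for 90 min, supernatant protein was measured by TMTpro 16plex LC-MS/MS with channel sums equalised.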
# pictilisib = compound: CS(=O)(=O)N1CCN(Cc2cc3nc(-c4cccc5[nH]ncc45)nc(N4CCOCC4)c3s2)CC1 [pictilisib]
# In short: as §1
# crizotinib = compound: C[C@@H](Oc1cc(-c2cnn(C3CCNCC3)c2)cnc1N)c1c(Cl)ccc(F)c1Cl [crizotinib]
# In short: as §1
# [1] = compound: C[C@H](C1=CC=C(C=C1)C(=O)NC2=C3C=CNC3=NC=C2)N
# In short: as §1
# duvelisib = compound: C[C@H](Nc1ncnc2nc[nH]c12)c1cc2cccc(Cl)c2c(=O)n1-c1ccccc1 [duvelisib]
# In short: as §1
# gandotinib = compound: Cc1cc(Nc2cc(CN3CCOCC3)c3nc(C)c(Cc4ccc(Cl)cc4F)n3n2)n[nH]1 [gandotinib]
# In short: as §1
# tozasertib = compound: Cc1cc(Nc2cc(N3CCN(C)CC3)nc(Sc3ccc(NC(=O)C4CC4)cc3)n2)n[nH]1 [tozasertib]
# In short: as §1
# doramapimod = compound: Cc1ccc(-n2nc(C(C)(C)C)cc2NC(=O)Nc2ccc(OCCN3CCOCC3)c3ccccc23)cc1 [doramapimod]
# In short: as §1
# bafetinib = compound: Cc1ccc(NC(=O)c2ccc(CN3CC[C@H](N(C)C)C3)c(C(F)(F)F)c2)cc1Nc1nccc(-c2cncnc2)n1 [bafetinib]
# In short: as §1
# [2] = compound: Cc1cccc(CC(=O)N2CCc3c2ccc(-c2cn(C)c4ncnc(N)c24)c3F)n1
# In short: as §1
# nilotinib = compound: Cc1cn(-c2cc(NC(=O)c3ccc(C)c(Nc4nccc(-c5cccnc5)n4)c3)cc(C(F)(F)F)c2)cn1 [nilotinib]
# In short: as §1
# [3] = compound: Cc1nc(Nc2n[nH]c3c2CN(C(=O)N[C@H](CN(C)C)c2ccccc2)C3(C)C)c2sccc2n1
# In short: as §1
# dasatinib = compound: Cc1nc(Nc2ncc(C(=O)Nc3c(C)cccc3Cl)s2)cc(N2CCN(CCO)CC2)n1 [dasatinib]
# In short: as §1
# [4] = compound: Cc1ncc(-c2ccnc(Nc3ccc(S(C)(=O)=O)cc3)n2)n1C(C)C
# In short: as §1
# [5] = compound: Cn1cc(-c2ccc3c(c2)CCN3C(=O)Cc2cccc(C(F)(F)F)c2)c2c(N)ncnc21
# In short: as §1
# quisinostat = compound: Cn1cc(CNCC2CCN(c3ncc(C(=O)NO)cn3)CC2)c2ccccc21 [quisinostat]
# In short: as §1
# tipifarnib = compound: Cn1cncc1[C@@](N)(c1ccc(Cl)cc1)c1ccc2c(c1)c(-c1cccc(Cl)c1)cc(=O)n2C [tipifarnib]
# In short: as §1
# [6] = compound: NC(=O)Nc1cc(-c2cccc(F)c2)sc1C(=O)N[C@H]1CCCNC1
# In short: as §1
# [7] = compound: NC(=O)c1cnc(N[C@@H]2CCCC[C@@H]2N)nc1Nc1cccc(-n2nccn2)c1
# In short: as §1
# [8] = compound: NC1(c2ccc(-c3nc4ccn5c(=O)[nH]nc5c4cc3-c3ccccc3)cc2)CCC1
# In short: as §1
Target,log2 fold change (lapatinib),log2 fold change (pictilisib),log2 fold change (crizotinib),log2 fold change [1],log2 fold change (duvelisib),log2 fold change (gandotinib),log2 fold change (tozasertib),log2 fold change (doramapimod),log2 fold change (bafetinib),log2 fold change [2],log2 fold change (nilotinib),log2 fold change [3],log2 fold change (dasatinib),log2 fold change [4],log2 fold change [5],log2 fold change (quisinostat),log2 fold change (tipifarnib),log2 fold change [6],log2 fold change [7],log2 fold change [8]
MAIP1 (UniProt Q8WWC4),inactive: -0.021,inactive: -0.041,inactive: -0.057,inactive: -0.036,inactive: -0.033,inactive: 0.05,inactive: 0.004,inactive: 0.051,inactive: -0.108,inactive: 0.011,inactive: 0.024,inactive: 0.006,inactive: -0.053,inactive: 0.037,inactive: 0.022,inactive: -0.094,inactive: -0.054,inactive: 0.064,inactive: -0.003,inactive: -0.028
MAP3K20 (UniProt Q9NYL2),inactive: 0.015,inactive: -0.006,inactive: -0.01,inactive: 0.029,inactive: -0.061,inactive: -0.121,inactive: -0.028,inactive: 0.025,inactive: -0.224,inactive: -0.016,inactive: -0.09,inactive: 0.022,inactive: -0.069,inactive: 0.012,inactive: -0.045,inactive: -0.06,inactive: 0.003,inactive: 0.021,inactive: 0.009,inactive: -0.047
LTN1 isoform 3 (UniProt O94822),inactive: 0.086,inactive: -0.017,inactive: -0.046,inactive: 0.027,inactive: -0.029,inactive: -0.18,inactive: 0.003,inactive: 0.009,inactive: -0.071,inactive: 0.007,inactive: 0.006,inactive: -0.007,inactive: -0.086,inactive: -0.009,inactive: 0.014,inactive: -0.023,inactive: -0.002,inactive: 0.044,inactive: -0.016,inactive: -0.027
MALSU1 (UniProt Q96EH3),inactive: 0.048,inactive: 0.092,inactive: 0.006,inactive: -0.065,inactive: 0.034,inactive: 0.053,inactive: 0.049,inactive: -0.013,inactive: -0.087,inactive: 0.09,inactive: -0.023,inactive: 0.008,inactive: -0.052,inactive: 0.013,inactive: -0.018,inactive: -0.052,inactive: 0.022,inactive: 0,inactive: 0.003,inactive: 0.005
MAML2 (UniProt Q8IZL2),inactive: 0.023,inactive: 0.139,inactive: 0.003,inactive: -0.042,inactive: 0.045,inactive: 0.037,inactive: -0.029,inactive: 0.05,inactive: 0.009,inactive: 0.025,inactive: 0.055,inactive: 0.073,inactive: 0.081,inactive: 0.031,inactive: 0.033,inactive: -0.114,inactive: 0.015,inactive: 0.016,inactive: -0.202,inactive: -0.008
MAGEC1 (UniProt O60732),inactive: -0.012,inactive: -0.022,inactive: -0.054,inactive: 0.002,inactive: 0.023,inactive: -0.026,inactive: -0.008,inactive: 0,inactive: -0.018,inactive: 0.081,inactive: 0.02,inactive: 0.023,inactive: -0.062,inactive: 0.017,inactive: 0.041,inactive: -0.061,inactive: -0.021,inactive: 0.035,inactive: -0.009,inactive: -0.046
MARS (UniProt P56192),inactive: -0.004,inactive: 0.017,inactive: -0.048,inactive: -0.001,inactive: -0.009,inactive: -0.061,inactive: 0.003,inactive: 0.025,inactive: -0.051,inactive: 0.045,inactive: 0,inactive: -0.002,inactive: -0.051,inactive: -0.009,inactive: 0.02,inactive: -0.056,inactive: -0.015,inactive: 0.045,inactive: 0.005,inactive: -0.015
MAP7D1 (UniProt Q3KQU3),inactive: 0.005,inactive: 0,inactive: -0.015,inactive: -0.026,inactive: 0,inactive: 0.013,inactive: 0.008,inactive: 0.027,inactive: -0.031,inactive: 0.029,inactive: 0.001,inactive: -0.018,inactive: -0.004,inactive: 0.039,inactive: 0.03,inactive: -0.028,inactive: 0.008,inactive: 0.02,inactive: -0.037,inactive: -0.01
MAGEA1 (UniProt P43355),inactive: -0.092,inactive: -0.044,inactive: 0.042,inactive: 0.018,inactive: 0.002,inactive: -0.092,inactive: 0.005,inactive: -0.023,inactive: -0.034,inactive: 0.01,inactive: -0.01,inactive: 0.104,inactive: 0.011,inactive: -0.04,inactive: -0.003,inactive: -0.023,inactive: -0.05,inactive: 0.034,inactive: 0.071,inactive: 0.037
LUC7L3 (UniProt O95232),inactive: 0.012,inactive: 0.026,inactive: 0.02,inactive: -0.085,inactive: 0.018,inactive: -0.038,inactive: -0.001,inactive: 0.048,inactive: -0.037,inactive: 0.039,inactive: -0.01,inactive: -0.033,inactive: -0.013,inactive: -0.007,inactive: 0.001,inactive: -0.051,inactive: -0.024,inactive: -0.062,inactive: 0.012,inactive: -0.055
MAT2B (UniProt Q9NZL9),inactive: 0.008,inactive: -0.028,inactive: 0.007,inactive: 0.063,inactive: -0.031,inactive: -0.02,inactive: 0.019,inactive: -0.023,inactive: -0.007,inactive: 0.005,inactive: 0.002,inactive: -0.014,inactive: -0.023,inactive: -0.024,inactive: -0.007,inactive: 0.021,inactive: 0.02,inactive: -0.005,inactive: 0.04,inactive: 0.009
LYAR (UniProt Q9NX58),inactive: 0,inactive: 0.025,inactive: 0.005,active: 0.269,inactive: 0.017,inactive: -0.119,inactive: -0.025,inactive: -0.017,inactive: -0.008,inactive: -0.099,inactive: 0.01,inactive: -0.021,inactive: 0.002,inactive: 0.005,inactive: 0.014,inactive: 0.003,inactive: 0,inactive: -0.002,inactive: -0.016,inactive: -0.012
MAGEA9 (UniProt P43362),inactive: -0.033,inactive: 0,inactive: -0.022,inactive: -0.078,inactive: 0.061,inactive: 0.023,inactive: 0,inactive: 0.042,inactive: -0.022,inactive: 0.003,inactive: 0.024,inactive: 0.015,inactive: 0.032,inactive: 0.013,inactive: -0.003,inactive: -0.014,inactive: 0.012,inactive: 0.003,inactive: -0.008,inactive: 0.002
MAP3K4 (UniProt Q9Y6R4),inactive: -0.02,inactive: 0.009,inactive: 0.033,inactive: 0.064,inactive: -0.017,inactive: 0.034,inactive: 0.092,inactive: 0.073,inactive: -0.031,inactive: -0.041,inactive: 0.003,inactive: 0.206,active: 0.485,inactive: 0.095,inactive: 0.132,inactive: -0.078,inactive: -0.015,inactive: 0.203,inactive: 0.045,inactive: -0.021
MAEA (UniProt Q7L5Y9),inactive: 0.012,inactive: -0.06,inactive: -0.02,inactive: -0.003,inactive: 0.026,inactive: -0.039,inactive: 0.019,inactive: -0.029,inactive: -0.043,inactive: -0.022,inactive: 0.017,inactive: -0.017,inactive: 0.006,inactive: 0.018,inactive: 0.083,inactive: -0.035,inactive: 0.014,inactive: 0.066,inactive: 0.004,inactive: 0.035
MAGEB2 (UniProt O15479),inactive: 0.006,inactive: -0.039,inactive: -0.022,inactive: -0.016,inactive: 0.042,inactive: -0.011,inactive: -0.026,inactive: -0.017,inactive: -0.055,inactive: 0.052,inactive: 0.024,inactive: 0.027,inactive: -0.022,inactive: -0.007,inactive: 0.027,inactive: -0.03,inactive: 0.018,inactive: 0.041,inactive: -0.005,inactive: -0.023

# Two entries from above, tab-delimited.
Target	log2 fold change (lapatinib)	log2 fold change (pictilisib)	log2 fold change (crizotinib)	log2 fold change [1]	log2 fold change (duvelisib)	log2 fold change (gandotinib)	log2 fold change (tozasertib)	log2 fold change (doramapimod)	log2 fold change (bafetinib)	log2 fold change [2]	log2 fold change (nilotinib)	log2 fold change [3]	log2 fold change (dasatinib)	log2 fold change [4]	log2 fold change [5]	log2 fold change (quisinostat)	log2 fold change (tipifarnib)	log2 fold change [6]	log2 fold change [7]	log2 fold change [8]
MAP7D1 (UniProt Q3KQU3)	inactive: 0.005	inactive: 0	inactive: -0.015	inactive: -0.026	inactive: 0	inactive: 0.013	inactive: 0.008	inactive: 0.027	inactive: -0.031	inactive: 0.029	inactive: 0.001	inactive: -0.018	inactive: -0.004	inactive: 0.039	inactive: 0.03	inactive: -0.028	inactive: 0.008	inactive: 0.02	inactive: -0.037	inactive: -0.01
MAP3K4 (UniProt Q9Y6R4)	inactive: -0.02	inactive: 0.009	inactive: 0.033	inactive: 0.064	inactive: -0.017	inactive: 0.034	inactive: 0.092	inactive: 0.073	inactive: -0.031	inactive: -0.041	inactive: 0.003	inactive: 0.206	active: 0.485	inactive: 0.095	inactive: 0.132	inactive: -0.078	inactive: -0.015	inactive: 0.203	inactive: 0.045	inactive: -0.021

# From the supplement of paper PMC10849652
